Laboratory results from publication PMC4911916.

Amino acid sequences for entries named in this document (tags omitted).
UniProt Q9HCJ0: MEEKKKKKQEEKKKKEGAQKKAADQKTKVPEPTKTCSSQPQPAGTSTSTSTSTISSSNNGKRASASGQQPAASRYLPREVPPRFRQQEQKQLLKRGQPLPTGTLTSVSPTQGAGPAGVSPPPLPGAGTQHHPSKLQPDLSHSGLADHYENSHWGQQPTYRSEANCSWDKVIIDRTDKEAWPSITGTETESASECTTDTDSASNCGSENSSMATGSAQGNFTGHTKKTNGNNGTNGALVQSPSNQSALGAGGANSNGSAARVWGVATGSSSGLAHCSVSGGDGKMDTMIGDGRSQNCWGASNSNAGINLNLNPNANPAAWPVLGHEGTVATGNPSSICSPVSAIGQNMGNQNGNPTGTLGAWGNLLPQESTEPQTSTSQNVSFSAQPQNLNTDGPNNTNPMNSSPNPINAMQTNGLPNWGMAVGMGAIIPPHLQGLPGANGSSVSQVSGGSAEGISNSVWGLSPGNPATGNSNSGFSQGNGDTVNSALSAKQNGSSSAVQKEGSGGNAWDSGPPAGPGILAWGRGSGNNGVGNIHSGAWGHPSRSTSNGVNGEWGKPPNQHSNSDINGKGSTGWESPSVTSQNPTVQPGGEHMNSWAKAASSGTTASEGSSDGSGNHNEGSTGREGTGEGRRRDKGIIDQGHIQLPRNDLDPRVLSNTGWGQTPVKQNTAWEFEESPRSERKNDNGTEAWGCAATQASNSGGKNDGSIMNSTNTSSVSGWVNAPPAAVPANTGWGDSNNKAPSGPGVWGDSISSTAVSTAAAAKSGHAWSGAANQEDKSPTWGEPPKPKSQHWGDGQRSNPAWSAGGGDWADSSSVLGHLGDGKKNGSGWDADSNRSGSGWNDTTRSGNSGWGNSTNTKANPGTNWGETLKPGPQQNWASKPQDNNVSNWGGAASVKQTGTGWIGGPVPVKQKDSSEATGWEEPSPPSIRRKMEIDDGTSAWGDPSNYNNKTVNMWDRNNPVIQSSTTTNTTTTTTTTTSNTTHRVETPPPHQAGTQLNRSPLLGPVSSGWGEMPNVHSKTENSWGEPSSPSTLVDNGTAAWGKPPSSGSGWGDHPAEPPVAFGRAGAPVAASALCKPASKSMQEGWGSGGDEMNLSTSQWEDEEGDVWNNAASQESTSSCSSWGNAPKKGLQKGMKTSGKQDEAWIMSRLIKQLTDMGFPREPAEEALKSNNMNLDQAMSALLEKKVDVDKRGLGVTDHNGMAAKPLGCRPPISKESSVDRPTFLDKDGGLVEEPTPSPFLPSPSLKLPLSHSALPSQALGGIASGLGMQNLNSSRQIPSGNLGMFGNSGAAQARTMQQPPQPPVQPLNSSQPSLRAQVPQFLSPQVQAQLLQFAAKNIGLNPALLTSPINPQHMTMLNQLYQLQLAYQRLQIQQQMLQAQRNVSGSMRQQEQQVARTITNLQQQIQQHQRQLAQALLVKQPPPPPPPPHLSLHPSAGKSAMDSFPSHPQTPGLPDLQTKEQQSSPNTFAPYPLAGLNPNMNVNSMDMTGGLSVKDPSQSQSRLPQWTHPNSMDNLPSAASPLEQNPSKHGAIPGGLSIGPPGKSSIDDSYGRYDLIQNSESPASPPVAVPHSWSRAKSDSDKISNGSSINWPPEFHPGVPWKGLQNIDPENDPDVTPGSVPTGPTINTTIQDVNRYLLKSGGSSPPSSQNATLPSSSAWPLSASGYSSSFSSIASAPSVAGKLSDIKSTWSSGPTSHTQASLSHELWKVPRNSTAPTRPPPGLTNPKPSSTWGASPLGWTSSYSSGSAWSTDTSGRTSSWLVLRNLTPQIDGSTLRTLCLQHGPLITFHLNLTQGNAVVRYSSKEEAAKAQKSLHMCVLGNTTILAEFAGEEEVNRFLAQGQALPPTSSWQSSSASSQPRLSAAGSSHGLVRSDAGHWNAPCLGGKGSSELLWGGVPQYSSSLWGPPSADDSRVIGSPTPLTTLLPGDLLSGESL
UniProt Q9UPQ9: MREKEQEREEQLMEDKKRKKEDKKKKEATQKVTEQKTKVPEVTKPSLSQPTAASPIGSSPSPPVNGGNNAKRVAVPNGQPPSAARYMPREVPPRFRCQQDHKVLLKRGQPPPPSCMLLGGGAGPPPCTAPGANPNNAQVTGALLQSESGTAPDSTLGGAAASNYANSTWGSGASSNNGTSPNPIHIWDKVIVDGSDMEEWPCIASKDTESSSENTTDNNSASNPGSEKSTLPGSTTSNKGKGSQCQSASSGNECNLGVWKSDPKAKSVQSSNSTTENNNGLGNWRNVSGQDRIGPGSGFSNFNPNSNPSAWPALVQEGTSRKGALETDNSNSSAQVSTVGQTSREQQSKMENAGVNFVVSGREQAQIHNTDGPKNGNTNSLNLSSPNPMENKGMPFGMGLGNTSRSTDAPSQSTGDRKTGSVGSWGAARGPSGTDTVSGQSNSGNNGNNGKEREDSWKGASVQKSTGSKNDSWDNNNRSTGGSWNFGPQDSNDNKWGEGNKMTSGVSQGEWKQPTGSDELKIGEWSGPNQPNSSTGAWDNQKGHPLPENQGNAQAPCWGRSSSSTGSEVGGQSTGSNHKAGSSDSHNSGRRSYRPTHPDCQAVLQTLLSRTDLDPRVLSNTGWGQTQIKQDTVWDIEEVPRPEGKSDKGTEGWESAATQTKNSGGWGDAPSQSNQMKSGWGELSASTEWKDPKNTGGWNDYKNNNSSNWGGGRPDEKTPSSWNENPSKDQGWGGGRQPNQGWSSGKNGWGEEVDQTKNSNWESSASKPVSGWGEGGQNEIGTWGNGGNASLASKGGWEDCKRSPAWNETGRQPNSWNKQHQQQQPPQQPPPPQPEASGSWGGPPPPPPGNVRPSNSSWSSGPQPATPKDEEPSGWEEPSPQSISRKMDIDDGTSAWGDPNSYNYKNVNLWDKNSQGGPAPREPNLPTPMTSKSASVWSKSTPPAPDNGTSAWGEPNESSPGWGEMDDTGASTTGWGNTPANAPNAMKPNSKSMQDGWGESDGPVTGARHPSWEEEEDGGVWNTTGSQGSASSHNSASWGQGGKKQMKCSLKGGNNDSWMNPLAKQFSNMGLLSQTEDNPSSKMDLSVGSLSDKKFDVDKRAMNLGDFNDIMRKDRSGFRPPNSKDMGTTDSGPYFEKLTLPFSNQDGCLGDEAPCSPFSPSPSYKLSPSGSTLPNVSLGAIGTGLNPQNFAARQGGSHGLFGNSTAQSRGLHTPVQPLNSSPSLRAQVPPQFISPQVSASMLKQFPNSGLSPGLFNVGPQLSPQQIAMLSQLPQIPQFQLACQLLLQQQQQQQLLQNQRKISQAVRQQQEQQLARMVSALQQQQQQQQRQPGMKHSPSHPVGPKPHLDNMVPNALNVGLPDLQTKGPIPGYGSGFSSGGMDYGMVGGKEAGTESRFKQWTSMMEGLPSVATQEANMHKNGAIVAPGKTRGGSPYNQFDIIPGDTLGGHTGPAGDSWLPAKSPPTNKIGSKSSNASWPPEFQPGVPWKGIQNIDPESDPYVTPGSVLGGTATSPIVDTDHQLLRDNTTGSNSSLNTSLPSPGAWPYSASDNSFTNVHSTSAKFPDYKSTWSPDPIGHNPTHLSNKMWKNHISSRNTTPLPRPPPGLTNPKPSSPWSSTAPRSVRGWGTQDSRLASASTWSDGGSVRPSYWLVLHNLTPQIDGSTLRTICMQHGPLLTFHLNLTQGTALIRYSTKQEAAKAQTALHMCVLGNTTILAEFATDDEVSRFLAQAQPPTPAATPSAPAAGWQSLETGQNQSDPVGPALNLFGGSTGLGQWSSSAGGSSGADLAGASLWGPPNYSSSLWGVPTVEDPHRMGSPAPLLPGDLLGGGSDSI
UniProt Q8NDV7: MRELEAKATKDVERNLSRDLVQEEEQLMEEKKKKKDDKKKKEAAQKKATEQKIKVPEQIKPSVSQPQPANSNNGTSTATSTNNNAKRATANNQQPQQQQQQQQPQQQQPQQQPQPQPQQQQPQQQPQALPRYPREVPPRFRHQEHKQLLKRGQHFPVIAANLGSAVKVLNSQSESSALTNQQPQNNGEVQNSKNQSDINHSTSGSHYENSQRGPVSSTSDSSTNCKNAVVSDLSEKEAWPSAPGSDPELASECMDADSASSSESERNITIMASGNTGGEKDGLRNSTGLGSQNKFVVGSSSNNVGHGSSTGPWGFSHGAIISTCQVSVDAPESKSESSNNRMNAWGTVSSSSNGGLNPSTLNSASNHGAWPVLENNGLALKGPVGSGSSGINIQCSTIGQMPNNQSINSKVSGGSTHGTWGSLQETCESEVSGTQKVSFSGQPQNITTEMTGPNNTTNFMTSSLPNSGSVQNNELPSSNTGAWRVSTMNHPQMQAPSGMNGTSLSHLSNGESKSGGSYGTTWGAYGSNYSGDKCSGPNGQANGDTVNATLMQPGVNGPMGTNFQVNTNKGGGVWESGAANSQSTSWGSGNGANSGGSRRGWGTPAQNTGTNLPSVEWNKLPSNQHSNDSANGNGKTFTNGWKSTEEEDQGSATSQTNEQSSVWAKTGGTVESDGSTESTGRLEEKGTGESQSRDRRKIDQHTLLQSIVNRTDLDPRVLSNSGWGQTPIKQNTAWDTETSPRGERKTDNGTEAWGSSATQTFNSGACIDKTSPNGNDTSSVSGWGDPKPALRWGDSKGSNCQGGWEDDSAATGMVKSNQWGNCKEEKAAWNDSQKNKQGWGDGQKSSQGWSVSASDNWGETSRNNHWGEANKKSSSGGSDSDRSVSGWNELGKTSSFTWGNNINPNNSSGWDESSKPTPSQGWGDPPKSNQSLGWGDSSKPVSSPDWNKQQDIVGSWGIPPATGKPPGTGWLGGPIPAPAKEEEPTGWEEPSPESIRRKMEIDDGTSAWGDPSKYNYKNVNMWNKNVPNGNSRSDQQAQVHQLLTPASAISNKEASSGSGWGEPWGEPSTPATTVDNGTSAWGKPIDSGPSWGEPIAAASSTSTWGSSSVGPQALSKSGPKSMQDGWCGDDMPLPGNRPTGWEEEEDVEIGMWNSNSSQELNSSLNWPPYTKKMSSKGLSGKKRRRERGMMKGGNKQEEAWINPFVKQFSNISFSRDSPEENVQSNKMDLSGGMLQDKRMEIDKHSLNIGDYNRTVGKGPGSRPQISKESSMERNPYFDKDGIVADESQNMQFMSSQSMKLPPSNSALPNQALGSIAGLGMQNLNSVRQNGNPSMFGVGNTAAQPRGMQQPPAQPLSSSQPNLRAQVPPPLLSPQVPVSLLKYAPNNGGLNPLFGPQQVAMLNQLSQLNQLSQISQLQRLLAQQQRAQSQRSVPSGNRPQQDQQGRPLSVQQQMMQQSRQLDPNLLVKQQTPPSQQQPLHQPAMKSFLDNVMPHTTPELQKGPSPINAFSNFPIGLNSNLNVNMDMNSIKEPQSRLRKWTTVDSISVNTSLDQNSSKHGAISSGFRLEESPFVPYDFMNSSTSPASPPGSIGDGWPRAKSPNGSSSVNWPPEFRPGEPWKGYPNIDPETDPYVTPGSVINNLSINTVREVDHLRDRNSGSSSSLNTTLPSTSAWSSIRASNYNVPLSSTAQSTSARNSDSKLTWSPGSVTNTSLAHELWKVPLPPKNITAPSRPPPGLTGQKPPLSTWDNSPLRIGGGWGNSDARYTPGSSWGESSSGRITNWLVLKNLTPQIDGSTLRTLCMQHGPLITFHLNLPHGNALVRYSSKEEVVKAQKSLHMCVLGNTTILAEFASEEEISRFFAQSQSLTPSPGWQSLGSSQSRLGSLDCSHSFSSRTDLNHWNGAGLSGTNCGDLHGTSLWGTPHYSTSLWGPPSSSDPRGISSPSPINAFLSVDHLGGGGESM

What was measured:
[1] = target: endogenous Argonaute 2 (AGO2) (human (endogenous in T47D)) (UniProt Q9UKV8); test: affinity purification with mass spectrometry; anti-AGO2 antibody IP of endogenous AGO2 from T47D nuclear extract, treated with RNase (TurboNuclease); 6 washes in IP300 buffer; control: mouse IgG resin; LC/MS/MS, SINQ
[2] = target: Flag-HA-tagged AGO2 (human) (UniProt Q9UKV8); test: affinity purification with mass spectrometry; anti-Flag resin IP of Flag-AGO2 from cytoplasmic extract of the stable T47D line, treated with RNase (TurboNuclease 1:10,000, 30 min, room temperature); 6 washes in IP300 buffer; control: Flag IP from T47D extract; LC/MS/MS, SINQ
[3] = target: endogenous Argonaute 2 (AGO2) (human (endogenous in T47D)) (UniProt Q9UKV8); test: affinity purification with mass spectrometry; anti-AGO2 antibody (cross-linked to resin) IP of endogenous AGO2 from T47D cytoplasmic extract, no RNase; overnight 4°C; 6 washes in IP300 buffer (300 mM NaCl, 0.05% NP-40); control: mouse IgG resin; LC/MS/MS, SINQ
[4] = target: Flag-HA-tagged AGO2 (human) (UniProt Q9UKV8); test: affinity purification with mass spectrometry; anti-Flag resin IP of Flag-AGO2 from nuclear extract of the stable T47D line, treated with RNase (TurboNuclease); 6 washes in IP300 buffer; control: Flag IP from T47D extract; LC/MS/MS, SINQ
[5] = target: endogenous Argonaute 2 (AGO2) (human (endogenous in T47D)) (UniProt Q9UKV8); test: affinity purification with mass spectrometry; anti-AGO2 antibody IP of endogenous AGO2 from T47D cytoplasmic extract, treated with RNase (TurboNuclease); 6 washes in IP300 buffer; control: mouse IgG resin; LC/MS/MS, SINQ
[6] = target: Flag-HA-tagged AGO2 (human) (UniProt Q9UKV8); test: affinity purification with mass spectrometry; anti-Flag resin IP of Flag-AGO2 from cytoplasmic extract of the stable T47D line, no RNase; overnight 4°C; 6 washes in IP300 buffer (300 mM NaCl, 0.05% NP-40); control: Flag IP from T47D extract; LC/MS/MS, SINQ
[7] = target: endogenous Argonaute 2 (AGO2) (human (endogenous in T47D)) (UniProt Q9UKV8); test: affinity purification with mass spectrometry; anti-AGO2 antibody IP of endogenous AGO2 from T47D nuclear extract, no RNase (DNase added); 6 washes in IP300 buffer; control: mouse IgG resin; LC/MS/MS, SINQ
[8] = target: Flag-HA-tagged AGO2 (human) (UniProt Q9UKV8); test: affinity purification with mass spectrometry; anti-Flag resin IP of Flag-AGO2 from nuclear extract of the stable T47D line, no RNase (DNase added); 6 washes in IP300 buffer; control: Flag IP from T47D extract; LC/MS/MS, SINQ

Measured: binding

AGO3 (from UniProt Q9H9G7 1-860)
binds: [1] | [2] | [3] | [4] | [5] | [6] | [7]

TNRC6C (from UniProt Q9HCJ0 1-1936)
binds: [1] | [8] | [3] | [4] | [6] | [7]

TNRC6B (from UniProt Q9UPQ9 1-1833)
binds: [1] | [2] | [3] | [4] | [5] | [6] | [7]

TNRC6A (GW182) (from UniProt Q8NDV7 1-1962)
binds: [1] | [8] | [2] | [3] | [4] | [6] | [7]

Dicer (from UniProt Q9UPY3 1-1922)
binds: [8] | [2] | [3] | [5] | [6]

Results are given in words; binding and its absence hold for the method and conditions named. In cells and extracts the contact can be indirect. A yes stands for co-enrichment or nearness to the bait. Other partners may have been found.
